Data: patent US20130156781A1
Results are given in words; binding and its absence hold for the method and conditions named. Some entries that bind do so weakly or less than the wild type.

Legend:
[1] = target: Recombinant human rTRAIL receptor 1 (DR4), extracellular part, amino acids 25-239 (human) (UniProt O00220); assay: ELISA on coated DR4
[2] = target: T1, Cell surface-associated native DR4 on ST486 Burkitt's lymphoma cells (human) (UniProt O00220); assay: flow cytometry on ST486 cells
T1 sequence: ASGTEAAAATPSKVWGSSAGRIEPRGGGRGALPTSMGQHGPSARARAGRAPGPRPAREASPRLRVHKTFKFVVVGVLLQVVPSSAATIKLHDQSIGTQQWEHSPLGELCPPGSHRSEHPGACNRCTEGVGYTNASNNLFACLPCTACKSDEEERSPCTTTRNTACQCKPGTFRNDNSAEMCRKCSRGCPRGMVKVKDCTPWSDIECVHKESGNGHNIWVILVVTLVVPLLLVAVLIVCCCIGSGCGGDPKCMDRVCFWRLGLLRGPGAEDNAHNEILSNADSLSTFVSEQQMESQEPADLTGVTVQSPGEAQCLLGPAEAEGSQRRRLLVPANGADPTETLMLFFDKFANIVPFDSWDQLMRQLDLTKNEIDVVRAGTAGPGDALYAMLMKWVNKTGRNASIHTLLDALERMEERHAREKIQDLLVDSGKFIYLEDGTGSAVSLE

[3] = target: T1, Cell surface-associated native DR4 on ST486 Burkitt's lymphoma cells (human); assay: flow cytometry on ST486 cells, 24 nM antibody
[4] = target: Recombinant human rTRAIL receptor 1 (DR4), extracellular part, amino acids 25-239 (human) (UniProt O00220); assay: ELISA on coated recombinant DR4, IgG diluted 1:5 from 1000 nM to 0.0128 nM, OD405

binding [1]: binds
binding [2]: binds
binding [3]: binds
binding [4]: binds
B1: m921 IgG1 (antibody, V domains shown)
VH: QVQLQQSGPGLVKPSQTLSLTCAISGDSVSSNSAAWNWIRQSPSRGLEWLGRTYYRSKWYNDYAVSVKGRITINPDTSKNQFSLQLNSVTPEDTAVYYCARDLGVAAADSYYYYGMDVWGQGTTVTVSS
VL: QPVLTQPPSASATPGQRVTISCSGSSSNIGSNTLDWFQQLPGTAPKLLIFDTNRRPSGVPDRFSGSKSGTSASLAISGLQAEDEAVYFCATWDNSLNGAVFGGGTKLSVPR
